# Results are given in words; binding and its absence hold for the method and conditions named. Some binding calls cover weakened binding; strength is not graded here.
# B1: Rmnd5a (protein, UniProt Q80YQ8 1-391)
# chain: MDQCVTVERELEKVLHKFSGYGQLCERGLEELIDYTGGLKHEILQSHGQDAELSGTLSLVLTQCCKRIKDTVQKLASDHKDIHSSVSRVGKAIDKNFDSDISSVGIDGCWQADSQRLLNEVMVEHFFRQGMLDVAEELCQESGLSVDPSQKEPFVELNRILEALKVRVLRPALEWAVSNREMLIAQNSSLEFKLHRLYFISLLMGGTTNQREALQYAKNFQPFALNHQKDIQVLMGSLVYLRQGIENSPYVHLLDANQWADICDIFTRDACALLGLSVESPLSVSFSAGCVALPALINIKAVIEQRQCTGVWNQKDELPIEVDLGKKCWYHSIFACPILRQQTTDNNPPMKLVCGHIISRDALNKMFNGSKLKCPYCPMEQSPGDAKQIFF
# Target: T1, Maea (mouse) (UniProt Q4VC33)
# T1 sequence: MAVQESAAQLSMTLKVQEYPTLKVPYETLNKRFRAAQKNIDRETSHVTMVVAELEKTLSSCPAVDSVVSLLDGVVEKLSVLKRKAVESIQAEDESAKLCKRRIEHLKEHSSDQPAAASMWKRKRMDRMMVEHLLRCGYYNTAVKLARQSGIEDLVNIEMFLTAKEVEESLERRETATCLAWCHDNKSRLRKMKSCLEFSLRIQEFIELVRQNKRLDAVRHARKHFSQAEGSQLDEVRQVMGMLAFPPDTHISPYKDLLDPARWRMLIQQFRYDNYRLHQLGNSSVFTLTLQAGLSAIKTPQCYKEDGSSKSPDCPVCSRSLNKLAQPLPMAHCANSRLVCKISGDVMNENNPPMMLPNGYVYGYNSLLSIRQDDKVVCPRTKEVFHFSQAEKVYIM
# Assay: SEC; Tcat complex co-expressed in Hi5 insect cells and co-purified by nickel affinity and SEC; both purified
binder,measurement,value
B1,binding,binds

# Source: publication PMC9932110
